Values quoted from earlier work, collected in US8450339B2, “Compositions for treatment of common cold” (Takeda Pharma A/S, priority 2001, dated 2013).

Settings: aqueous solution

Q: With CC(C)[N+]1(C)[C@@H]2CC[C@H]1CC(OC(=O)C(CO)c1ccccc1)C2.[Br-] (stereo partly shown) [ipratropium bromide] as the compound, how does the “Stability optimum, pH” value read?
A: Its value is 3.5.
